Reference: the supplement of paper PMC4604168 (melanoma cell lines)
This is one part of the list. Many values rest on one well or one pass, so single values are uncertain.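 Cells were imaged in 1,536-well plates, and nuclei stained with an antibody against cleaved PARP were counted against all DNA-stained nuclei to give the apoptosis fraction. Screening doses were chosen to leave most cells alive, and resting and induced cleaved-PARP levels differ strongly between cell lines.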

How the values were obtained:
Test in all cases: cleaved PARP positive nuclei fraction relative to DMSO control; melanoma cells; higher = more apoptosis
Details in all cases: library dose: low library concentration; 72 h
501Mel = test system: 501Mel
A101D = test system: A101D
A2058 = test system: A2058
A375 = test system: A375
C32 = test system: C32
CBRC013 = test system: CBRC013 (line from a melanoma biopsy)
CBRC014 = test system: CBRC014 (line from a melanoma biopsy)
CBRC016 = test system: CBRC016 (line from a melanoma biopsy)
CBRC017 = test system: CBRC017 (line from a melanoma biopsy)

Compound | cleaved PARP positive nuclei fraction (501Mel) [%] | cleaved PARP positive nuclei fraction (A101D) [%] | cleaved PARP positive nuclei fraction (A2058) [%] | cleaved PARP positive nuclei fraction (A375) [%] | cleaved PARP positive nuclei fraction (C32) [%] | cleaved PARP positive nuclei fraction (CBRC013) [%] | cleaved PARP positive nuclei fraction (CBRC014) [%] | cleaved PARP positive nuclei fraction (CBRC016) [%] | cleaved PARP positive nuclei fraction (CBRC017) [%]
C[As](C)SC[C@H](NC(=O)CC[C@H](N)C(=O)O)C(=O)NCC(=O)O [Darinaparsin] + CCCCCCCCCCCC1=C(O)C(=O)C=C(O)C1=O [Embelin] (first compound 0.4 µM, partner dose 1.2 µM) | 162 | 85.9 | 212 | 124 | 233 | 68 | 96.7 | 52.2 | 88
C/C(O)=C(\C#N)C(=O)Nc1cc(Br)ccc1Br + O=C(Oc1ccc([N+](=O)[O-])cc1)N1CCC(C(O)(c2ccc3c(c2)OCO3)c2ccc3c(c2)OCO3)CC1 [JZL184] (first compound 2 µM, partner dose 1 µM) | 67.2 | 56.5 | 40.3 | 90.1 | 45.7 | 41.9 | 97.8 | 112 | 89.6
Cc1cc(N2CCOCC2)cc2[nH]c(-c3c(NC[C@@H](O)c4cccc(Cl)c4)cc[nH]c3=O)nc12 + Cc1cc(SCc2sc(-c3ccc(C(F)(F)F)c(F)c3)nc2C)ccc1OCC(=O)O [GW0742] (first compound 0.2 µM, partner dose 2 µM) | 183 | 67.3 | 24 | 159 | 35 | 114 | 305 | 70.8 | 87.1
COC(=O)c1sccc1S(=O)(=O)Nc1ccc(Nc2ccccc2)cc1OC + C/C(O)=C(\C#N)C(=O)Nc1cc(Br)ccc1Br [LFM-A13] (first compound 1 µM, partner dose 2 µM) | 28.7 | 114 | 48.6 | 119 | 137 | 881 | 105 | 78.8 | 393
CN(NC(=O)CC(=O)NN(C)C(=S)c1ccccc1)C(=S)c1ccccc1 + C/C(O)=C(\C#N)C(=O)Nc1cc(Br)ccc1Br [LFM-A13] (first compound 0.006 µM, partner dose 2 µM) | 210 | 55.1 | 236 | 3640 | 102 | 306 | 383 | 277 | 188
CCc1ccc(CCOc2ccc(CC3SC(=O)NC3=O)cc2)nc1 (configuration not stated) [pioglitazone] + Cc1cc(SCc2sc(-c3ccc(C(F)(F)F)c(F)c3)nc2C)ccc1OCC(=O)O [GW0742] (first compound 2 µM, partner dose 2 µM) | 197 | 325 | 233 | 131 | 189 | 291 | 91.2 | 68 | 84.5
COc1cc(N2CCC(N3CCN(C)CC3)CC2)ccc1Nc1ncc(Cl)c(Nc2ccccc2S(=O)(=O)C(C)C)n1 + O=C(Oc1ccc([N+](=O)[O-])cc1)N1CCC(C(O)(c2ccc3c(c2)OCO3)c2ccc3c(c2)OCO3)CC1 [JZL184] (first compound 0.08 µM, partner dose 1 µM) | 170 | 154 | 65.8 | 160 | 88.2 | 292 | 85.6 | 48.3 | 90.8
C[C@]1(c2nc3c(C(N)=O)cccc3[nH]2)CCCN1 [Veliparib] + C/C(O)=C(\C#N)C(=O)Nc1cc(Br)ccc1Br [LFM-A13] (first compound 1.4 µM, partner dose 2 µM) | 68.1 | 162 | 52.5 | 90.8 | 98.8 | 89 | 99 | 24.2 | 76.6
O=C(Nc1ccccc1)c1cc([N+](=O)[O-])ccc1Cl + Cc1cc(SCc2sc(-c3ccc(C(F)(F)F)c(F)c3)nc2C)ccc1OCC(=O)O [GW0742] (first compound 2 µM, partner dose 2 µM) | 44.7 | 171 | 153 | 79.9 | 105 | 175 | 226 | 54.4 | 163
CN(NC(=O)CC(=O)NN(C)C(=S)c1ccccc1)C(=S)c1ccccc1 + Cc1cc(SCc2sc(-c3ccc(C(F)(F)F)c(F)c3)nc2C)ccc1OCC(=O)O [GW0742] (first compound 0.006 µM, partner dose 2 µM) | 67.8 | 138 | 81.2 | 105 | 84.8 | 50 | 117 | 100 | 87
Cc1cc(SCc2sc(-c3ccc(C(F)(F)F)c(F)c3)nc2C)ccc1OCC(=O)O + CCCCCCCCCCCC1=C(O)C(=O)C=C(O)C1=O [Embelin] (first compound 2 µM, partner dose 1.2 µM) | 83.8 | 182 | 26.3 | 96.8 | 89 | 55.5 | 80.8 | 149 | 82
OCCn1cc(-c2cnc3nnn(Cc4ccc5ncccc5c4)c3n2)cn1 + O=C(Oc1ccc([N+](=O)[O-])cc1)N1CCC(C(O)(c2ccc3c(c2)OCO3)c2ccc3c(c2)OCO3)CC1 [JZL184] (first compound 1 µM, partner dose 1 µM) | 73 | 109 | 137 | 83.2 | 43.8 | 151 | 188 | 66.7 | 61.4
C/C(O)=C(\C#N)C(=O)Nc1cc(Br)ccc1Br + Oc1nc(-c2ccc(C(F)(F)F)cc2)nc2c1CSCC2 [XAV939] (first compound 2 µM, partner dose 2 µM) | 70 | 118 | 47.8 | 47.1 | 84.7 | 97.8 | 96.7 | 23.1 | 80.4
C[As](C)SC[C@H](NC(=O)CC[C@H](N)C(=O)O)C(=O)NCC(=O)O [Darinaparsin] + O=c1cc(-c2cccc3c2Sc2ccccc2S3)oc(N2CCOCC2)c1 [KU55933] (first compound 0.4 µM, partner dose 1 µM) | 100 | 41.5 | 61 | 73.6 | 116 | 88.1 | 100 | 109 | 115
O=C(Nc1cccc(Cl)c1)Nc1ncc(CCNc2ncnc3ccsc23)s1 + O=C(Oc1ccc([N+](=O)[O-])cc1)N1CCC(C(O)(c2ccc3c(c2)OCO3)c2ccc3c(c2)OCO3)CC1 [JZL184] (first compound 0.0008 µM, partner dose 1 µM) | 134 | 511 | 115 | 22.2 | 61.8 | 365 | 90.5 | 40.2 | 63.5
NC(=O)Nc1cc(-c2cccc(F)c2)sc1C(=O)N[C@H]1CCCNC1 + C/C(O)=C(\C#N)C(=O)Nc1cc(Br)ccc1Br [LFM-A13] (first compound 0.02 µM, partner dose 2 µM) | 122 | 180 | 67.4 | 421 | 126 | 262 | 101 | 72.9 | 84.9
C[As](C)SC[C@H](NC(=O)CC[C@H](N)C(=O)O)C(=O)NCC(=O)O [Darinaparsin] + Cc1cc(SCc2sc(-c3ccc(C(F)(F)F)c(F)c3)nc2C)ccc1OCC(=O)O [GW0742] (first compound 0.4 µM, partner dose 2 µM) | 81 | 90.8 | 95.1 | 86.7 | 75.5 | 66.8 | 88.2 | 85.4 | 228
COc1cc2c(Oc3ccc4[nH]c(C)cc4c3F)ncnc2cc1OCCCN1CCCC1 [cediranib] + Cc1cc(SCc2sc(-c3ccc(C(F)(F)F)c(F)c3)nc2C)ccc1OCC(=O)O [GW0742] (first compound 0.4 µM, partner dose 2 µM) | 120 | 45.7 | 26.4 | 119 | 648 | 89.3 | 94.5 | 67.8 | 71.7
C[As](C)SC[C@H](NC(=O)CC[C@H](N)C(=O)O)C(=O)NCC(=O)O [Darinaparsin] + COc1ccc2c(c1)CCC1C2CCC2(C)C(NCCCCCCN3C(=O)C=CC3=O)CCC12 [U73122] (first compound 0.4 µM, partner dose 0.4 µM) | 55.9 | 110 | 37.2 | 56.7 | 168 | 209 | 180 | 67.9 | 70.7
Cc1ccc(NC(=O)c2cccc(N(C)C)c2)cc1NC(=O)c1ccc(O)cc1 + C/C(O)=C(\C#N)C(=O)Nc1cc(Br)ccc1Br [LFM-A13] (first compound 2 µM, partner dose 2 µM) | 92.3 | 207 | 54.3 | 65.6 | 115 | 182 | 101 | 83.1 | 112
O=C(O)c1ccc(-c2c[nH]c3ncc(-c4ccccc4)cc23)cc1C1CCCC1 + C/C(O)=C(\C#N)C(=O)Nc1cc(Br)ccc1Br [LFM-A13] (first compound 0.16 µM, partner dose 2 µM) | 48.1 | 140 | 83.7 | 257 | 96.6 | 152 | 250 | 94.9 | 94
Nc1cccc2c1CN(C1CCC(=O)NC1=O)C2=O (configuration not stated) [lenalidomide] + Cc1cc(SCc2sc(-c3ccc(C(F)(F)F)c(F)c3)nc2C)ccc1OCC(=O)O [GW0742] (first compound 1 µM, partner dose 2 µM) | 47 | 35.2 | 249 | 76 | 138 | 43.9 | 94.7 | 51.5 | 68.6
N#Cc1c(O)c2c(-c3ccc(-c4ccccc4O)cc3)csc2[nH]c1=O + Cc1cc(SCc2sc(-c3ccc(C(F)(F)F)c(F)c3)nc2C)ccc1OCC(=O)O [GW0742] (first compound 2 µM, partner dose 2 µM) | 110 | 125 | 214 | 110 | 134 | 118 | 91.4 | 62.5 | 128

Quoted from above (two entries):
Compound | cleaved PARP positive nuclei fraction (501Mel) [%] | cleaved PARP positive nuclei fraction (A101D) [%] | cleaved PARP positive nuclei fraction (A2058) [%] | cleaved PARP positive nuclei fraction (A375) [%] | cleaved PARP positive nuclei fraction (C32) [%] | cleaved PARP positive nuclei fraction (CBRC013) [%] | cleaved PARP positive nuclei fraction (CBRC014) [%] | cleaved PARP positive nuclei fraction (CBRC016) [%] | cleaved PARP positive nuclei fraction (CBRC017) [%]
CN(NC(=O)CC(=O)NN(C)C(=S)c1ccccc1)C(=S)c1ccccc1 + Cc1cc(SCc2sc(-c3ccc(C(F)(F)F)c(F)c3)nc2C)ccc1OCC(=O)O [GW0742] (first compound 0.006 µM, partner dose 2 µM) | 67.8 | 138 | 81.2 | 105 | 84.8 | 50 | 117 | 100 | 87
Cc1cc(SCc2sc(-c3ccc(C(F)(F)F)c(F)c3)nc2C)ccc1OCC(=O)O + CCCCCCCCCCCC1=C(O)C(=O)C=C(O)C1=O [Embelin] (first compound 2 µM, partner dose 1.2 µM) | 83.8 | 182 | 26.3 | 96.8 | 89 | 55.5 | 80.8 | 149 | 82
